Results: the supplement of paper PMC7877785
± gives the uncertainty stated by the source. Many of these values have a large error.

Test: self-splicing fitness, log relative to wild type (ln ratio); higher = more splicing; Tetrahymena group I intron in knt gene, E. coli kanamycin selection, DiMSum; sequences stand for … in CUCUCU…GGAGGGAAAAGUUAUCAGGCAUGCACCUGGUAGCUAGUCUUUAAACCAAUAGAUUGCAUCGGUUUAAAAGGCAAGACCGUCAAAUUGCGGGAAAGGGGUCAACAGCCGUUCAGUACCAAGUCUCAGGGGAAACUUUGAGAUGGCCUUGCAAAGGGUAUGGUAAUAAGCUGACGGACAUGGUCCUAACCACGCAGCCAAGUCCUAAGUCAACAGAUCUUCUGUUGAUAUGGAUGCAGUUCACAGACUAAAUGUCGGUCGGGGAAGAUGUAUUCUUCUCAUAAGAUAUAGUCGGACCUCUCCUUAAUGGGAGCUAGCGGAUGAAGUGAUGCAACACUGGAGCCGCUGGGAACUAAUUUGUAUGCGAAAGUAUAUUGAUUAGUUUUGGAGUACUCGUGGUCG
Summary of the method: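 Fitness was computed with DiMSum as the error-weighted combination of replicate fold changes, kanamycin versus none, each normalised to wild type. The library randomised all eight intron nucleotides of the P1ex region, with the intron placed in the knt kanamycin-resistance gene on pET-22b(+) in E. coli BL21(DE3). Six replicate transformations were grown overnight at 37°C or 30°C on LB agar with or without 25 μg/mL kanamycin, plus 100 μg/mL carbenicillin, 50 μM IPTG and 0.2% rhamnose. Pooled colonies were amplicon-sequenced on an Illumina HiSeq 2500.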

Sequence | self-splicing fitness (ln) (30 °C) | self-splicing fitness (ln) (37 °C)
AAAGAGCAAUAUUACGCUCU | -4.64 ± 0.59 | 
GAAUAGCAAUAUUACGUUAA | -2.56 ± 0.17 | -1.9 ± 0.15
AGUGAGCAAUAUUACGAGCC |  | -1.34 ± 0.87
UGGUAGCAAUAUUACGAAAC | -4.02 ± 0.42 | -2.42 ± 0.45
CGUGAGCAAUAUUACGACUC | -2.52 ± 0.59 | -2.47 ± 0.54
GUCAAGCAAUAUUACGGCCG |  | -2.57 ± 1.1
CCAGAGCAAUAUUACGACCC | -4.5 ± 1 | -1.1 ± 0.65
AGAUAGCAAUAUUACGGACC | -0.504 ± 0.15 | -0.242 ± 0.12
GAGCAGCAAUAUUACGGAUC | -0.51 ± 0.12 | -0.724 ± 0.12
GCCGAGCAAUAUUACGAACA |  | -1.59 ± 0.61
UUGUAGCAAUAUUACGCCAU | -3.75 ± 0.75 | -2.33 ± 0.52
CAGGAGCAAUAUUACGUACC |  | -0.687 ± 1
CACGAGCAAUAUUACGCGCC | -2.92 ± 0.56 | 
UUGCAGCAAUAUUACGCCAC | -2.96 ± 0.68 | -1.1 ± 0.5
GGAGAGCAAUAUUACGCUAC |  | -3.16 ± 1
UCGGAGCAAUAUUACGCAAA | -3.78 ± 0.6 | -2.06 ± 0.67
GGGCAGCAAUAUUACGCACC | -3.23 ± 1 | 
UGCAAGCAAUAUUACGUGUA | -1.96 ± 0.073 | -1.35 ± 0.084
UUGGAGCAAUAUUACGAGAG | -5.14 ± 1 | -1.83 ± 0.54
UCGUAGCAAUAUUACGUCUA | -1.48 ± 0.1 | -0.978 ± 0.12
UCACAGCAAUAUUACGCAUU |  | -3.66 ± 0.51
AGAGAGCAAUAUUACGACGG |  | -2.53 ± 0.63
GCUGAGCAAUAUUACGACCG | -2.16 ± 0.66 | 1.34 ± 0.62
UAAGAGCAAUAUUACGCACU |  | -2.18 ± 1.1

Sequence | self-splicing fitness (ln) (30 °C) | self-splicing fitness (ln) (37 °C)
CAACAGCAAUAUUACGAAGA | -2.55 ± 0.17 | -2.35 ± 0.17
GUCAAGCAAUAUUACGUCAC | -3.72 ± 1 | -3.69 ± 0.59
GAGAAGCAAUAUUACGGAAU | -3.69 ± 0.25 | -1.55 ± 0.2
GUGGAGCAAUAUUACGCCCC | -1.52 ± 1.2 | -1.17 ± 0.57
AGCUAGCAAUAUUACGCUCU | -2.24 ± 0.18 | -1.57 ± 0.24
GAGAAGCAAUAUUACGUCCU |  | -0.17 ± 0.54
CGGGAGCAAUAUUACGAGCC |  | -2.39 ± 1.1
AGGGAGCAAUAUUACGUAUA |  | -1.48 ± 0.51
CGGGAGCAAUAUUACGGUUU | -4.4 ± 0.59 | -1.19 ± 0.32
AGUUAGCAAUAUUACGCGGC | -2.64 ± 0.64 | -2.72 ± 1.1
GUUCAGCAAUAUUACGAUUA | -0.665 ± 0.12 | -0.545 ± 0.097
AUAUAGCAAUAUUACGUAGG | -3.06 ± 0.21 | -0.744 ± 0.16
AAACAGCAAUAUUACGCCGC | -3.72 ± 1 | -3.87 ± 0.51
UACGAGCAAUAUUACGGUGU | -5.59 ± 1 | 
CCCGAGCAAUAUUACGAAUC |  | -3.14 ± 0.6
AGGAAGCAAUAUUACGGGUC | -3 ± 0.32 | -2.31 ± 0.29
GGUUAGCAAUAUUACGCGGC |  | -2.4 ± 0.64
UAGGAGCAAUAUUACGGUGA | -3.64 ± 0.76 | 
UGGUAGCAAUAUUACGUAUC | -2.96 ± 0.52 | 
GGAGAGCAAUAUUACGUUGC |  | -1.62 ± 1.1
UCGGAGCAAUAUUACGGGAG | -4.05 ± 0.6 | 
GUCCAGCAAUAUUACGAGCU | -4.55 ± 0.58 | 
UCUAAGCAAUAUUACGGCCC | -1.71 ± 0.69 | -0.595 ± 0.71
CAAUAGCAAUAUUACGAACC |  | -0.234 ± 1.4

Sequence | self-splicing fitness (ln) (30 °C) | self-splicing fitness (ln) (37 °C)
UGUCAGCAAUAUUACGGAGC | -1.16 ± 0.59 | 
GCCUAGCAAUAUUACGAUAG | -3.27 ± 0.52 | -4.09 ± 0.72
UGGGAGCAAUAUUACGGCCG | -2.82 ± 0.57 | 
GCUCAGCAAUAUUACGUGCC | -5.04 ± 0.71 | 
AGUCAGCAAUAUUACGUGGG | -4.29 ± 0.21 | -2.44 ± 0.14
GGAGAGCAAUAUUACGAGCG | -3.33 ± 0.64 | 
GUUGAGCAAUAUUACGCCCG | -2.7 ± 0.49 | -0.708 ± 0.71
UGGGAGCAAUAUUACGAUAA |  | -1.54 ± 1.2
AUUGAGCAAUAUUACGUCCA | -3.81 ± 0.52 | -2.01 ± 0.55
CUAAAGCAAUAUUACGACAC | -3.21 ± 0.5 | 
GCGGAGCAAUAUUACGGCAC | -1.69 ± 0.56 | 2.18 ± 0.73
UCAGAGCAAUAUUACGAAGU |  | -2.9 ± 0.54
CUGGAGCAAUAUUACGCGCC |  | -1.27 ± 0.51
UUAAAGCAAUAUUACGCCAC | -3.27 ± 1 | -4.13 ± 1
GGCCAGCAAUAUUACGCGCU | -2.62 ± 0.62 | 
UGAGAGCAAUAUUACGCAAU | -3.28 ± 0.57 | 
CCGGAGCAAUAUUACGCCGC | -0.828 ± 1 | -0.531 ± 0.5
CAGUAGCAAUAUUACGGUCA | -2.24 ± 0.84 | 
GUGUAGCAAUAUUACGGCAC |  | -0.727 ± 0.77
UGGUAGCAAUAUUACGCGGC | -0.135 ± 0.87 | -1.65 ± 0.8
UCGGAGCAAUAUUACGGCCU |  | -1.99 ± 0.67
GGUAAGCAAUAUUACGUAGC |  | 0.125 ± 0.52
CGGAAGCAAUAUUACGAGAU | -4.14 ± 0.51 | 
GUUGAGCAAUAUUACGGUUG | -3.56 ± 0.35 | -1.38 ± 0.38

2 neighbouring entries out of the list so far:
Sequence | self-splicing fitness (ln) (30 °C) | self-splicing fitness (ln) (37 °C)
CUAAAGCAAUAUUACGACAC | -3.21 ± 0.5 | 
GCGGAGCAAUAUUACGGCAC | -1.69 ± 0.56 | 2.18 ± 0.73

The results go on.

Sequence | self-splicing fitness (ln) (30 °C) | self-splicing fitness (ln) (37 °C)
CAUUAGCAAUAUUACGGUAU | -4.47 ± 0.72 | 
GUCGAGCAAUAUUACGGGCC | -3.87 ± 0.74 | -1.06 ± 0.8
UUCAAGCAAUAUUACGCUAG | -2.23 ± 0.23 | -2.32 ± 0.26
UGUGAGCAAUAUUACGUCAU | -4.4 ± 1 | 
UGGGAGCAAUAUUACGUAGA |  | -2.31 ± 1.1
AGGGAGCAAUAUUACGCGUU |  | -2.46 ± 0.44
GUUUAGCAAUAUUACGGCGG |  | -1.29 ± 0.71
UUCCAGCAAUAUUACGCCCU | -2.12 ± 0.68 | 
GCGGAGCAAUAUUACGAGUC | -3.06 ± 0.61 | 
UCGCAGCAAUAUUACGACUG | -1.93 ± 0.14 | -2.7 ± 0.25
UUUAAGCAAUAUUACGACAC |  | -2.15 ± 0.65
CGUUAGCAAUAUUACGGUCU | -1.56 ± 0.18 | -1.22 ± 0.16
UCAGAGCAAUAUUACGCCGC | -2.6 ± 0.68 | -1.26 ± 0.71
UCUGAGCAAUAUUACGGGCU | -4.42 ± 0.51 | 
GUAGAGCAAUAUUACGACCA |  | -0.76 ± 0.55
UUGCAGCAAUAUUACGAGAA | -1.82 ± 0.71 | 
CUUCAGCAAUAUUACGCCAC |  | -1.37 ± 0.59
UUUGAGCAAUAUUACGGGUC | -4.22 ± 0.52 | 
ACGGAGCAAUAUUACGUGCA | -3.89 ± 0.52 | 
CGGGAGCAAUAUUACGAACA | -2.97 ± 0.75 | 
ACGGAGCAAUAUUACGGGAA | -4.37 ± 0.36 | -2.03 ± 0.31
AGUGAGCAAUAUUACGCAUU | -2.55 ± 0.21 | -1.4 ± 0.19
